From US20100093612A1 (priority 2007, published 2010)

Assay: general procedure: Fmoc solid-phase peptide synthesis; 2-chlorotrityl chloride polystyrene resin (Fluka, 100-300 mesh, calculated loading 1.55-[…]); TBTU/HOBt/DIEA; cyclisation with DPPA/NaHCO3 or HATU/HOAt/collidine
Details: hydrochloride salt; for cyclisation yield: cyclisation step

Substance	final HPLC purity (whole synthesis, 254 nm)	final HPLC purity (whole synthesis, 220 nm)	further results
c[-Arg-Gly-Asp-AMPRO1-]			cyclisation yield (run 1): 95%; cyclisation yield (run 2): 75%; final HPLC purity (whole synthesis, analytical RP-HPLC in two solvent systems): ≧98%; crude yield (whole synthesis, overall): 35%
c[-Arg-Gly-Asp-AMPRO2-]	≧98%		
c[-Arg-Gly-Asp-AMPRO3-]	≧98%		
c[-Arg-Gly-Asp-AMPRO5-]	≧98%		
c[-Arg-Gly-Asp-AMPRO9-]		98%	
c[-Arg-Gly-Asp-AMPRO11-]		≧98%	
c[-Arg-Gly-Asp-AMPRO15-]		≧98%	
c[Arg-Gly-Asp-AMPRO4-]	≧98%		
